In PubChem BioAssay AID493014 (National Center for Advancing Translational Sciences (NCATS), 2011) one finds AC50 data, which are given here for 61 compounds.

The structures appear in SMILES notation. This is one part of the list. These are further read-outs of the screen, such as a control signal, another cell line or another target. No call is given for them. Compounds called inactive in the main read-out are mostly missing here. Words in brackets tell the shape of the fitted curve; partial curves, single points and poor fits give uncertain potencies.

Usually AC50 stands for the midpoint of the concentration-response curve, whichever way the signal moves.

The assay can be described thus: qHTS Assay to Find Inhibitors of Chronic Active B-Cell Receptor Signaling. The settings on record: ABC-DLBCL IkBa-CBG/CBR reporter, luminescence ratio (green luciferase fused to IkBa over red control in TMD8 lymphoma cells), 4 h; measured here: CBR red luminescence, cell number. Summed up:
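Cell line TMD8 (human ABC DLBCL), stably expressing tet-inducible CBG68-IkBa fusion and CBR; IMDM/0.5% FBS; cpd up to 46 uM; dox induction, 4 h, 37C/5% CO2; dual luminescence; green/red ratio; MG132 control.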
On to `C=C1c2ccccc2NC(=O)N1c1ccc(C)cc1`, for which the concentration at half-maximal activity (AC50) was 10.3 µM [falling, partial curve, poor fit].
The figure for `COc1cc(OC)cc(C(=O)NNC(=O)CN2C(=O)NC3(CCCC3)C2=O)c1` is 2.31 µM [rising, partial curve, poor fit]; for `Cc1ccc(NC2=NC(c3ccc(C)cc3)n3c(nc(C)cc3=O)N2)cc1` (stereo unspecified) it is 5.62 µM [rising, partial curve, poor fit].
On to `Cc1ccc(-c2cc3c(N=O)c4ccccc4c-3n[nH]2)cc1`, for which the AC50 is 2 µM [falling, partial curve, poor fit].
On to `CCCC1=Nc2cc(C(=O)NCCN3CCOCC3)ccc2Sc2ccccc21`, for which the concentration at half-maximal activity (AC50) is 8.91 µM [falling, partial curve, poor fit].
The figure for `c1ccc(-c2cc3c(NCC4COc5ccccc5O4)ncnc3s2)cc1` (stereo unspecified) is 29.1 µM [falling, single point]; for `O=C(O)CCc1ccc(-c2ccccc2)n1-c1ccc(C(=O)O)cc1` it is 28.2 µM [falling, single point].
Take `COc1cc(OC)c2c(-c3ccccc3)cc(=O)oc2c1C(CC(=O)N1CCOCC1)c1ccc(N(C)C)cc1` (stereo unspecified): the half-maximal activity concentration (AC50) is 2.82 µM [falling, partial curve].
The result for `COc1ccc(S(=O)(=O)N/N=C(/C)c2cccc(NC(=O)c3ccccc3Cl)c2)cc1` reads 10 µM [falling, partial curve, poor fit]; that for `N#Cc1ccccc1Cn1cc(/C=N/Nc2ccc([N+](=O)[O-])cn2)c2ccccc21`, 5.62 µM [rising, partial curve, poor fit].
With `COc1cc2ccccc2cc1C(=O)N(CCN(C)C)c1nc2c(OC)ccc(OC)c2s1`, the half-maximal activity concentration (AC50) is 15.8 µM [falling, partial curve, poor fit].
The figure for `CCOC(=O)C1=C(C)NC(=O)NC1c1ccc(OCC(=O)OC)c(OC)c1` (stereo unspecified) is 25.1 µM [rising, single point].
The figure for `OCCn1c(SCCOc2ccccc2)nc2ccccc21` is 11.6 µM [falling, partial curve, poor fit]; for `COc1ccc(-c2ccc(CCC(=O)O)n2NC(=O)c2ccc(C(C)(C)C)cc2)cc1` it is 11.2 µM [falling, single point]; for `CCCCc1ccc(N2C(=O)[C@@H]3C(CC(N)=O)NC4(C(=O)Nc5ccc(F)cc54)[C@@H]3C2=O)cc1` (stereo partly specified) it is 29.1 µM [falling, single point].
The result for `O=C1CN(C(=O)COC(=O)Cc2ccsc2)c2ccccc2N1` reads 7.31 µM [rising, partial curve, poor fit]; that for `CC(C)CSC1=NSC2=NC(=O)/C(=C\c3coc4ccccc4c3=O)C(=N)N12`, 12.6 µM [falling, single point]; that for `Cc1csc(SCC(=O)Nc2sccc2C(N)=O)n1`, 12.6 µM [falling, partial curve, poor fit].
On to `CCOC(=O)c1cnc(SCc2nc(N)nc(Nc3ccccc3)n2)nc1N`, for which the AC50 was 9.2 µM [rising, partial curve].
The result for `Cn1c(=O)[nH]c(=O)c2c1nc(Br)n2C/C=N/NC(=O)c1ccccc1` reads 12.6 µM [falling, partial curve]; that for `Fc1cc(Br)ccc1Nc1nc2ccccc2n2nnnc12`, 10.3 µM [falling, partial curve].
The result for `COc1ccc(C(=O)n2nc(-c3ccc(C)cc3)nc2N)cc1OC` reads 0.0058 µM [falling, full curve, poor fit]; that for `N#C/C(=C\c1c(Cl)cccc1Cl)c1nc2ccccc2[nH]1`, 12.6 µM [falling, partial curve, poor fit]; that for `COc1cc(NC(=O)c2cc([N+](=O)[O-])ccc2N2CCOCC2)ccc1NC(=O)c1ccco1`, 0.501 µM [falling, full curve, poor fit].
The figure for `COc1cc(O)cc2cc3c(c(O)c12)C(=O)CC(C)(O)O3` (stereo unspecified) is 12.6 µM [falling, partial curve].
In the case of `CC1CCc2c(c3ccccc3n2C(=O)CCl)C1` (stereo unspecified), the AC50 is 35.5 µM [rising, single point].
The figure for `O=C(NCCCN1CCCC1=O)NC12CC3CC(CC(C3)C1)C2` is 0.92 µM [rising, full curve, poor fit].
The result for `Cc1nc(S/C(=C\c2ccc(-c3ccc(C(=O)O)c(Cl)c3)o2)C(=O)O)n[nH]1` reads 35.5 µM [falling, single point].
The result for `CCOC(=O)c1ccccc1NC(=O)COC(=O)CC(C)(C)CC1=NS(=O)(=O)c2ccccc2N1` reads 22.4 µM [falling, single point]; that for `Cc1ccc(CNC(=O)COC(=O)CN2C(=O)C3CC=CCC3C2=O)cc1` (stereo unspecified), 16.4 µM [rising, single point].
With `Cc1ccnc(Nc2nc(-c3ccc(O)c(O)c3)cs2)c1`, the AC50 was 11.2 µM [falling, partial curve, poor fit].
The result for `O=C(CCCCCN1C(=O)[C@@H]2Cc3ccccc3CN2C1=O)Nc1ccccc1F` reads 5.01 µM [falling, full curve].
The result for `O=C(CC1NCCc2ccccc21)Nc1ccc(Oc2ccccc2)cc1` (stereo unspecified) reads 5.62 µM [falling, partial curve, poor fit]; that for `COc1ccccc1N1CCN(C(=O)C(C)N(c2ccccc2)S(C)(=O)=O)CC1` (stereo unspecified), 18.4 µM [rising, single point]; that for `COc1ccccc1N1CCN(Cc2nc(N)nc(Nc3ccc(C)c(Cl)c3)n2)CC1`, 0.651 µM [rising, full curve, poor fit].
The figure for `O=C(Nc1ccc(N2CCCCC2)cc1)c1ccc(F)cc1` is 29.1 µM [falling, single point].
With `COCCNC(=O)c1ccc2c(Cl)c3c(nc2c1)CCC3`, the AC50 is 3.16 µM [rising, partial curve, poor fit].
On to `COc1ccc(-c2oc(=O)c3cc(OC)c(OC)cc3c2C#CC2(O)CCCCC2)cc1`, for which the AC50 was 18.4 µM [falling, single point].
The figure for `COc1ccc(OC(=O)CN2C(=O)C3C4CCC(C4)C3C2=O)cc1` (stereo unspecified) is 9.2 µM [rising, partial curve, poor fit].
In the case of `C#CCOCCOCCOCCNc1nc(N2CCN(C(=O)CCCCCCCCCCNC(=O)[C@H](CCCCN)n3cc(CCO)nn3)CC2)nc(N2CCN(C(=O)CCCCCCCCCCNC(=O)[C@H](CCCN=C(N)N)n3cc(C[C@@H](C)CC)nn3)CC2)n1`, the half-maximal activity concentration (AC50) is 18.4 µM [rising, partial curve].
On to `COc1ccc(CC(=O)Nc2sc3c(c2C(N)=O)CCCC3)cc1`, for which the AC50 is 25.1 µM [falling, single point].
With `CCCc1c(C(=O)Nc2ccc(F)cc2C)cnn1-c1ccccc1`, the AC50 is 6.31 µM [falling, partial curve, poor fit].
For `Cc1cc2nc(CCN(C(=S)NCC3CCCO3)C3CCCC3)[nH]c2cc1C` (stereo unspecified), the AC50 is 35.5 µM [falling, single point].
The figure for `COc1cccc(NC(=O)c2oc3ccc(S(=O)(=O)N4CCCCCC4)cc3c2C)c1` is 7.08 µM [falling, partial curve, poor fit]; for `O=C(COC(=O)c1ccco1)c1ccc(Cl)cc1` it is 35.5 µM [rising, single point]; for `Cc1cc(C)cc(NC(=O)N2CCN(Cc3ccc4c(c3)OCO4)CC2)c1` it is 15.8 µM [falling, single point].
The result for `COc1ccc(C2=NS(=O)(=O)N(C)C(C(=O)N3CCc4ccccc4C3)=C2)cc1OC` reads 12.6 µM [falling, single point].
The figure for `CC(=O)Oc1ccccc1N1C(=O)c2ccc(C(=O)O)cc2C1=O` is 6.51 µM [falling, partial curve].
On to `N#Cc1c(N2CCN(C(=O)c3ccco3)CC2)nc(-c2ccccc2)c2c1CCCC2`, for which the AC50 was 14.1 µM [falling, partial curve, poor fit].
On to `O=C(N/N=C/c1ccncc1)c1ccccn1`, for which the AC50 is 8.91 µM [falling, partial curve, poor fit].
The figure for `CCN(CC)CCn1c(=N)n(CC(=O)c2ccc(Br)s2)c2ccccc21` is 10 µM [falling, partial curve]; for `CSc1ccccc1OCc1cc(C(=O)N2CCC(Oc3cccnc3)CC2)no1` it is 35.5 µM [falling, single point]; for `O=S(=O)(NCC(c1ccco1)N1CCN(c2ccccc2)CC1)c1cc(F)ccc1F` (stereo unspecified) it is 0.112 µM [rising, full curve, poor fit].
The result for `COCCNCCCCOc1ccccc1-c1ccccc1` reads 20.6 µM [falling, partial curve, poor fit]; that for `CCCCc1nc2ccccc2c(N)c1CCC` (tested in a mixture with another compound), 29.1 µM [falling, single point].
The figure for `Cc1ccccc1OCC(=O)N=Nc1c(O)n(C)c2ccccc12` is 35.5 µM [rising, single point]; for `O=C(Nc1ccc(F)cc1F)c1ccc(-n2cncn2)nc1` it is 6.51 µM [falling, single point]; for `COc1cc(SC)ccc1C(=O)OC(C)C(=O)Nc1ccc(NC(C)=O)cc1` (stereo unspecified) it is 10 µM [falling, partial curve, poor fit].
In the case of `O=C(/C=C/c1ccccc1)NCCc1ccc2c(c1)OCCO2`, the AC50 was 29.1 µM [falling, single point].
Consider `CCc1cc(C(=O)O)c(NC(=O)c2cc(OC)c(OC)c(OC)c2)s1`, for which the AC50 is 12.6 µM [falling, partial curve].
For `O=C(O)C1CCN(C(=O)CSc2nc3cc(Cl)ccc3c(=O)n2Cc2ccccc2)CC1`, the AC50 was 8.91 µM [falling, partial curve, poor fit].
